From article PMC3861103
Results are given in words; binding and its absence hold for the method and conditions named. Some results given as binding are weak or reduced against the parent protein; the word gives no strength. Tags and fused reporters may be left off the sequences shown.

Target: T1, NHR-91 (GCNF homolog), Gal4 fusion for yeast two-hybrid (C. elegans) (UniProt Q9U2R6)
T1 sequence: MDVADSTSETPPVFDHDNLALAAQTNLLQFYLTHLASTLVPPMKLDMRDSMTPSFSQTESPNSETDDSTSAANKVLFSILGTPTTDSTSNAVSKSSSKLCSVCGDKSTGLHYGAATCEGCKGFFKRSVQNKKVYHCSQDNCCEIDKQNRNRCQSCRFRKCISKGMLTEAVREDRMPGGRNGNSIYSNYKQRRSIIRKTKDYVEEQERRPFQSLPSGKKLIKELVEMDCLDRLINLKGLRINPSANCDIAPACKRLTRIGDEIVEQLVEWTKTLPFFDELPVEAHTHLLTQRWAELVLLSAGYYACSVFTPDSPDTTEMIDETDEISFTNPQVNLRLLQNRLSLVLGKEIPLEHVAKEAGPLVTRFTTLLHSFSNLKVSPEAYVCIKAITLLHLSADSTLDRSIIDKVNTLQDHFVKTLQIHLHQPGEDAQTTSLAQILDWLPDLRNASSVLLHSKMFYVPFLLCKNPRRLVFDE
Assay: two-hybrid; Gal4 system in S. cerevisiae MaV103; DB fusion as bait (target in the rows), AD fusion as prey (binder in the rows); AD-Orfeome library screen and pairwise matrix tests; β-galactosidase (LacZ) and HIS3 (20 mM 3-aminotriazole) reporters

B1: NHR-25 3KR (K165R K170R K236R), Gal4 fusion for yeast two-hybrid (protein, UniProt Q19345 1-572)
chain: MTDVERMVLRPNHEGEMCPVCGDRVSGYHYGLLTCESCKGFFKRTVQNKKQYQCSAEANCHVDRTCRKRCPSCRFQKCLTMGMKMEAVRADRMRGGRNKFGSFYKKDRAHRMQRNAMRVSTVQVPAVLGAQSQAQTFYQPPEHQVSSSTTDQNNQINYFDQTKIRTEYIRTEYDAHLQSPTLSSSTNQQLSVSDFIMRPGYLVDPQDSLAVLLGSTIDDPLLRHTFPAAYQLNEVRQEPFDYSEQFIHHSLHDYPTYTSNTTNYATMMPMTTVSSTQSLVTSTSSTTTGRMTEASSTSPILPLCPAPTEKTVDHFYNSSIAEMCKTLPDDAQIARIFTSVKGTSKPEKHAFSIQVAEENLKDIVIWAKNDQLFSKLSLDDQMILLQTSWTTVHIVDITNAMVHGNLLSQYKMSNGDEVPVGLVALLGNQTFVSSWNDVVIRLRNMGFTNFDYCAFRFLALFDQSMDSFPAVSTARSRVLQSWREVRCTTAFLEIFEQIRRLAYDSLRYLWNLHSNCPTNWEQFFPEASLVLEMIRTTVNRSASSSVTAITQVPAIQLPTPQATYTAVPYMAS
For B1, the binding was “binds”.
